Data reported in PubChem BioAssay AID493014 (National Center for Advancing Translational Sciences (NCATS), 2011).
The whole screen tested about 340,000 compounds, of which about 170 (0.05%) were called active. The inconclusive results got no clear call from the source; some entries with a clear call stand among them for comparison. The call rests on the fitted dose curve; in most records, active means well fitted inhibition curve with a large enough effect in the signal ratio, with a control signal flat (not every such curve was filed as active); inconclusive means small, poorly fitted or top-dose-only effect, or effect the other way, or a change in a side signal; inactive means flat fitted curve, though single readings scatter; the % refers to the signal ratio. Potencies of inconclusive entries are doubtful fits and often do not repeat.

Experiment: qHTS Assay to Find Inhibitors of Chronic Active B-Cell Receptor Signaling;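 on activity change, negative = inhibition: plate controls were basal doxycycline-induced cells for no effect and cells given 10 µM MG132 for full effect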
Conditions: ABC-DLBCL IkBa-CBG/CBR reporter, luminescence ratio (green luciferase fused to IkBa over red control in TMD8 lymphoma cells), 4 h; activity change, negative = inhibition: at 46.1 µM (top of the series)
Procedure, shortened: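 Concentration-response series (up to 46 uM) were applied to TMD8 dual-reporter cells for 4 h at 37C with doxycycline. Green/red ratio, after filter-overlap correction, defined %Activity; red signal alone was normalised to basal cells and zero luminescence.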
Potency means the concentration at half of the fitted maximal effect.

Row | Structure (SMILES) | activity change, negative = inhibition | Potency
1 | CCOC(=O)CCc1c(C)c2ccc(OCC(=O)N3CCOCC3)c(C)c2oc1=O | inactive | –
2 | CN1C(=O)c2ccccc2Sc2ccc(NC(=O)COc3ccc(F)cc3)cc21 | inconclusive: -0.31% | –
3 | OC(COc1ccc(Cl)c2ccccc12)CN1CCN(c2ccccn2)CC1 (stereo not given) | inconclusive: -28.3% | –
4 | COCCCNC(=O)C(=O)NC1CCCCC1C (stereo not given) | inconclusive: -9.59% | –
5 | Oc1c(-c2cc(-c3ccco3)[nH]n2)ccc2ccccc12 | – | inconclusive: 8.2 µM [falling, partial curve, poor fit]
6 | CC(=O)N1CCc2c(sc(NC(=O)CN3C(=O)c4ccccc4C3=O)c2C(N)=O)C1 | – | inconclusive: 2.51 µM [falling, partial curve, poor fit]
7 | CCN(CC)c1nc2c(c(=O)n(C)c(=O)n2C)n1CCCc1ccccc1 | inactive | –
8 | COc1cccc(N/C(N)=N/c2nc(C(F)(F)F)cc(=O)[nH]2)c1 | – | inconclusive: 7.31 µM [falling, partial curve]
9 | COCCn1c(SCc2csc(-c3ccccc3)n2)nc2ccccc21 | – | inconclusive: 18.4 µM [falling, single point]
10 | COc1cc(OC)cc(C(=O)O/N=C(\N)c2cccc(C)c2)c1 | inconclusive: 8.67% | –
11 | O=C(Cn1ccc2ccccc2c1=O)NCCC(=O)N1CCN(c2cccc(Cl)c2)CC1 | inactive | –
12 | CC(C)C(=O)N=c1sc2cccc(F)c2n1C | inconclusive: 4.74% | –
13 | NC(=S)Cc1nc2n(n1)Cc1ccccc1-2 | – | inconclusive: 29.1 µM [rising, single point]
14 | Clc1ccccc1-c1nnc2sc(-c3ccc(Br)o3)nn12 | – | inconclusive: 12.6 µM [falling, partial curve]
15 | CCN(CC(=O)NCc1cccs1)C(=O)c1cc(Br)ccc1O | inactive | –
16 | COc1ccc(/C=C/c2c(-c3ccc(OC)cc3)oc3ccc(-c4ccc(OC)cc4)cc23)cc1 | inactive | –
17 | COC(=O)c1ccc(OC)cc1OCC(=O)N1CCN(c2ccc(F)cc2)CC1 | inactive | –
18 | O=C(CN1CCN(C(=O)c2ccc(-c3nc4ccccc4s3)o2)CC1)Nc1ccc(F)cc1 | – | inconclusive: 25.9 µM [falling, partial curve, poor fit]
19 | C=CCn1cccc(C(=O)Nc2ccc(N(C)C)cc2)c1=O | – | inconclusive: 35.5 µM [falling, partial curve, poor fit]
20 | O=[N+]([O-])c1ccc(COc2ncnc3ccccc23)cc1 | – | inconclusive: 35.5 µM [falling, partial curve, poor fit]
21 | Clc1ccccc1CN1CCN(c2ncccn2)CC1 | inconclusive: 9.77% | –
22 | COc1ccc(C(c2nnnn2C2CCCC2)N2CCc3ccccc3C2)cc1OC (stereo not given) | – | inconclusive: 35.5 µM [falling, single point]
23 | Cc1noc(C)c1COc1ccc(CC(=O)NCCc2ccccn2)cc1 | inactive | –
24 | N#Cc1c[nH]n2c(=O)c3c(nc12)CCCC3 | inconclusive: -1.66% | –
25 | CN1CCN(S(=O)(=O)c2ccc(NC(=O)C3CCCO3)cc2)CC1 (stereo not given) | inconclusive: 4.55% | –
26 | O=C(CN1C(=O)NC2(CCCCCC2)C1=O)c1ccc(OC(F)F)cc1OC(F)F | inactive | –
27 | CCC(C)NC(=S)Nc1ccc2nc(N3CCN(CC)CC3)cc(C)c2c1 (stereo not given) | inactive | –

Row | Structure (SMILES) | activity change, negative = inhibition | Potency
28 | CCN(CC)/C(=N/S(=O)(=O)c1ccc(C)cc1)c1ccccc1 | – | inconclusive: 1.46 µM [falling, partial curve]
29 | CC1CCc2nc(/C(C#N)=C/c3ccncc3)sc2C1 (stereo not given) | inconclusive: 6.95% | –
30 | O=C1NC(=O)C2C1C(c1ccccc1)N1C3C(=O)NC(=O)C3C(c3ccccc3)N21 (stereo not given) | inactive | –
31 | COc1cc2c(cc1OC)/C(=C/c1ccc(Br)cc1)C(=O)OC2 | – | inconclusive: 23.1 µM [falling, partial curve, poor fit]
32 | C/C(=N/NC(=O)c1ccoc1C)c1ccc(NC(=O)C2CCCC2)cc1 | – | inconclusive: 29.1 µM [falling, partial curve]
33 | COc1ccc(OC)c(NC(=O)CSc2nnc(-c3ccco3)n2-c2ccccc2)c1 | inactive | –
34 | O=C(CN(Cc1ccco1)C(=O)c1ccc([N+](=O)[O-])cc1)Nc1ccccc1C(F)(F)F | inactive | –
35 | CN(CC(=O)Nc1ccc(Cl)cc1)C(=O)c1cccc(S(=O)(=O)N2CCN(Cc3ccccc3)CC2)c1 | inconclusive: -0.135% | –
36 | CCOC(=O)c1nn(-c2ccc(Cl)cc2)c(C)cc1=O | inconclusive: 1.26% | –
37 | O=C(NN=C1C2CC3CC1CC(Cl)(C3)C2)c1cccs1 | – | inconclusive: 22.4 µM [rising, single point]
38 | O=C(CCCOc1ccc(Cl)cc1Cl)Nc1ccc(O)cc1C(=O)O | inconclusive: 5.21% | –
39 | CC(C)c1ccccc1NC(=O)C1CC(=O)N(C2CCCC2)C1 (stereo not given) | inactive | –
40 | C=CCOC(=O)C1=C(C)NC(SCC(=O)Nc2nccs2)=C(C#N)C1c1ccc(Cl)cc1 (stereo not given) | inconclusive: 12.9% | –
41 | O=C(CNC(c1ccccc1)c1ccccc1)Nc1c(F)cccc1F | inactive | –
42 | CSc1ccc(CNc2ccc(Cl)cc2)cc1 | inconclusive: 19% | –
43 | COc1ccc(-c2cn(-c3ccc(C)cc3)c(=O)n2CC(=O)Nc2cccc(F)c2)cc1 | inconclusive: 12.2% | –
44 | Cc1nc(C)c2c(c1C(F)(F)F)-c1ccccc1C2(F)F | inconclusive: 9.43% | –
45 | CN(C)Cc1c(C(=O)Nc2ccccc2)[nH]c2ccccc12 | inconclusive: -13.4% | –
46 | Cc1ccc2nc(-c3ccccc3)cc(C(=O)NCC3CCCO3)c2c1 (stereo not given) | inactive | –
47 | CCOC(=O)NNC(=O)c1[nH]c2ccc(Br)cc2c1-c1ccccc1 | inconclusive: -5.04% | –
48 | COc1ccc(S(=O)(=O)N(C)c2ccc(C(=O)Nc3ccccc3C(=O)N3CCOCC3)cc2)cc1OC | inactive | –
49 | CC12CC3CC(C)(C1)CC(Nc1nc(N4CCOCC4)nc4ccccc14)(C3)C2 | inconclusive: 2.05% | –
50 | CCc1ccc(OCC(=O)N(CC)CC)cc1 | – | inconclusive: 35.5 µM [falling, partial curve, poor fit]
51 | CC(C)COC(=O)NCCOC(=O)Nc1cccc(Cl)c1 | inactive | –
52 | COc1ccc(C(=O)NC(NC(=O)c2ccc(OC)c(OC)c2)c2ccccc2F)cc1OC | inconclusive: -2.69% | –
53 | CC(=N/O)/C(C)=N\NC(=O)c1ccccn1 | – | inconclusive: 12.6 µM [falling, partial curve]
54 | O=C(O)c1ccc(N/N=C/c2ccc(-c3ccccc3Cl)o2)cc1 | inconclusive: -13.6% | –

Row | Structure (SMILES) | activity change, negative = inhibition | Potency
55 | N#CC1=C(N)SC(N)=C(C#N)C1Cc1ccccc1 | inconclusive: 0.592% | –
56 | CCOC(=O)Cn1c(=N)n(CCOc2ccc3ccccc3c2)c2ccccc21 | inconclusive: 2.17% | –
57 | COc1cc(NC(=O)CN(C)S(=O)(=O)c2ccc(C)cc2)cc(OC)c1 | inconclusive: 5.61% | –
58 | COc1ccc(NC(=O)Nc2ccc(F)c(F)c2)c(OC)c1 | inconclusive: 5.69% | –
59 | COc1cccc(CNC(=O)C23CN(Cc4ccccc4)CC2C(c2ccc([N+](=O)[O-])cc2)=NO3)c1 (stereo not given) | inactive | –
60 | CCOC(=O)c1c(C)[nH]c(C(=O)OCC(=O)N(CC(C)C)C2CCS(=O)(=O)C2)c1C (stereo not given) | – | inconclusive: 23.1 µM [falling, partial curve]
61 | COc1ccc(-c2nn(CC(=O)N(C)C)c(=O)c3ccccc23)cc1 | inconclusive: -0.977% | –
62 | Cc1cc(C)c2[nH]c(=O)c(CN(Cc3ccco3)C(=S)NCC3CCCO3)cc2c1 (stereo not given) | inactive | –
63 | COc1ccc2c(CC(=O)OCC(=O)c3ccccc3OC)coc2c1 | – | inconclusive: 25.9 µM [falling, single point]
64 | Cc1nc2ccccn2c1-c1ccnn1S(=O)(=O)c1ccc(F)cc1 | inconclusive: -2.72% | –
65 | COC(=O)C1=C(C(=O)OC)[C@@H]2Nc3ccccc3[C@@]23C[C@@H](C(=O)OC)N(C(=O)c2ccc(Br)cc2)C3=N1 | inconclusive: 2.55% | –
66 | CCCc1cc2c(cc1NS(=O)(=O)c1ccc(CCNC(C)=O)cc1)OCO2 | inconclusive: -4.84% | –
67 | Cc1cc(/C=C2/NC(=O)N(Cc3ccccc3F)C2=O)c(C)n1-c1ccccn1 | inconclusive: 4.12% | –
68 | Cn1c(-c2ccc3c(c2)OCO3)cnc1NCc1ccc(Cl)cc1 | inconclusive: 7.01% | –
69 | CCN(CC)c1cc(C)c2cc(NC(=O)c3ccccc3OC)ccc2n1 | – | inconclusive: 11.2 µM [falling, partial curve]
70 | CSc1ccccc1NC(=O)CSc1nnnn1-c1ccccc1SC | – | inconclusive: 7.31 µM [falling, partial curve, poor fit]
71 | COc1ccccc1CCN1C(=S)NC(C)(C)CC1(C)O (stereo not given) | inconclusive: -11.7% | –
72 | O=C(NCCc1ccccc1)c1c(F)c(F)c(F)c(F)c1F | – | inconclusive: 25.9 µM [falling, single point]
73 | O=C(Cn1ncc2c(=O)oc3ccccc3c21)NC1CC1 | inconclusive: -19.7% | –
74 | CCN(C(=O)CN1CCCCCC1)c1c(N)n(Cc2ccccc2)c(=O)[nH]c1=O | inconclusive: 3.7% | –
75 | CC(C)(C)c1cc(C2=CSC3=NCCN23)cc(C(C)(C)C)c1O | inactive | –
76 | O=C(CCc1nnc(-c2ccccc2)o1)c1ccc(Cl)cc1 | inconclusive: 3.17% | –
77 | Cc1cccc(C(=O)NNC(=O)c2ccc(O)cc2)c1 | – | inconclusive: 12.6 µM [falling, partial curve]
78 | O=c1[nH]c2ccccc2nc1/C=C/c1ccc(Cl)cc1 | – | inconclusive: 0.398 µM [falling, full curve]
79 | O=c1nc(-c2ccccc2)cc(C(F)(F)F)[nH]1 | inconclusive: 12% | –
80 | O=C1CC(Sc2ncn[nH]2)C(=O)N1c1ccccc1 (stereo not given) | – | inconclusive: 23.1 µM [falling, single point]
